These are yes or no findings as the source states them, for the method shown. Binding seen in cells or lysates may run through a third protein. Tags and fused reporters may be left off the sequences shown.
Biological target: T1, Dit1-HA (S. cerevisiae) (UniProt P21623)
T1 sequence: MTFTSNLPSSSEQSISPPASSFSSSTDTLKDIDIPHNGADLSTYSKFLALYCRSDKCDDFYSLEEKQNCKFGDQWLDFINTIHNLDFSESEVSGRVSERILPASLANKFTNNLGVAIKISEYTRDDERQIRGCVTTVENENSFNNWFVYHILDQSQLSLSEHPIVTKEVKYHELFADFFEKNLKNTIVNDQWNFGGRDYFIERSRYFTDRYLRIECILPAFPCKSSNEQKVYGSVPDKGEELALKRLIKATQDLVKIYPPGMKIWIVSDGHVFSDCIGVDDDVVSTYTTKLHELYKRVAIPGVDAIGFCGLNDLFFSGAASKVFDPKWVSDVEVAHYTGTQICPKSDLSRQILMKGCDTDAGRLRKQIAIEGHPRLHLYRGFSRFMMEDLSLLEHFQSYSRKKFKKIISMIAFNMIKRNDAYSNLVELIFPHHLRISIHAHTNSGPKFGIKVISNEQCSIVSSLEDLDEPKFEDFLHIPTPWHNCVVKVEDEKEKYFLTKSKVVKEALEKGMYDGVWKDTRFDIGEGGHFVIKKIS
Test: co-IP; mouse anti-HA antibodies (1:200) with 200 uL of yeast lysate (PBS, proteinase inhibitor cocktail, 1% NP-40) 1 h at 4 °C, then protein A + G beads 2 h at 4 °C; beads washed five times with PBS; Western blotting

- binding: no binding
B1: Dit2-FLAG (enzyme, UniProt P21595 1-489)
chain: MELLKLLCLILFLTLSYVAFAIIVPPLNFPKNIPTIPFYVVFLPVIFPIDQTELYDLYIRESMEKYGAVKFFFGSRWNILVSRSEYLAQIFKDEDTFAKSGNQKKIPYSALAAYTGDNVISAYGAVWRNYRNAVTNGLQHFDDAPIFKNAKILCTLIKNRLLEGQTSIPMGPLSQRMALDNISQVALGFDFGALTHEKNAFHEHLIRIKKQIFHPFFLTFPFLDVLPIPSRKKAFKDVVSFRELLVKRVQDELVNNYKFEQTTFAASDLIRAHNNEIIDYKQLTDNIVIILVAGHENPQLLFNSSLYLLAKYSNEWQEKLRKEVNGITDPKGLADLPLLNAFLFEVVRMYPPLSTIINRCTTKTCKLGAEIVIPKGVYVGYNNFGTSHDPKTWGTTADDFKPERWGSDIETIRKNWRMAKNRCAVTGFHGGRRACLGEKLALTEMRISLAEMLKQFRWSLDPEWEEKLTPAGPLCPLNLKLKFNENIME
